Data reported in paper PMC5343593.
Where two headings read alike, the source gives them in different places. These are yes or no findings as the source states them, for the method shown. Binding seen in cells or lysates may run through a third protein. Here binding means that the protein was enriched with, or labelled near, the bait; the list need not be complete. For some of these results: Tags and fused reporters may be left off the sequences shown.

Chains of the proteins cited; added tags and fusions are not shown.
UniProt Q63HN8: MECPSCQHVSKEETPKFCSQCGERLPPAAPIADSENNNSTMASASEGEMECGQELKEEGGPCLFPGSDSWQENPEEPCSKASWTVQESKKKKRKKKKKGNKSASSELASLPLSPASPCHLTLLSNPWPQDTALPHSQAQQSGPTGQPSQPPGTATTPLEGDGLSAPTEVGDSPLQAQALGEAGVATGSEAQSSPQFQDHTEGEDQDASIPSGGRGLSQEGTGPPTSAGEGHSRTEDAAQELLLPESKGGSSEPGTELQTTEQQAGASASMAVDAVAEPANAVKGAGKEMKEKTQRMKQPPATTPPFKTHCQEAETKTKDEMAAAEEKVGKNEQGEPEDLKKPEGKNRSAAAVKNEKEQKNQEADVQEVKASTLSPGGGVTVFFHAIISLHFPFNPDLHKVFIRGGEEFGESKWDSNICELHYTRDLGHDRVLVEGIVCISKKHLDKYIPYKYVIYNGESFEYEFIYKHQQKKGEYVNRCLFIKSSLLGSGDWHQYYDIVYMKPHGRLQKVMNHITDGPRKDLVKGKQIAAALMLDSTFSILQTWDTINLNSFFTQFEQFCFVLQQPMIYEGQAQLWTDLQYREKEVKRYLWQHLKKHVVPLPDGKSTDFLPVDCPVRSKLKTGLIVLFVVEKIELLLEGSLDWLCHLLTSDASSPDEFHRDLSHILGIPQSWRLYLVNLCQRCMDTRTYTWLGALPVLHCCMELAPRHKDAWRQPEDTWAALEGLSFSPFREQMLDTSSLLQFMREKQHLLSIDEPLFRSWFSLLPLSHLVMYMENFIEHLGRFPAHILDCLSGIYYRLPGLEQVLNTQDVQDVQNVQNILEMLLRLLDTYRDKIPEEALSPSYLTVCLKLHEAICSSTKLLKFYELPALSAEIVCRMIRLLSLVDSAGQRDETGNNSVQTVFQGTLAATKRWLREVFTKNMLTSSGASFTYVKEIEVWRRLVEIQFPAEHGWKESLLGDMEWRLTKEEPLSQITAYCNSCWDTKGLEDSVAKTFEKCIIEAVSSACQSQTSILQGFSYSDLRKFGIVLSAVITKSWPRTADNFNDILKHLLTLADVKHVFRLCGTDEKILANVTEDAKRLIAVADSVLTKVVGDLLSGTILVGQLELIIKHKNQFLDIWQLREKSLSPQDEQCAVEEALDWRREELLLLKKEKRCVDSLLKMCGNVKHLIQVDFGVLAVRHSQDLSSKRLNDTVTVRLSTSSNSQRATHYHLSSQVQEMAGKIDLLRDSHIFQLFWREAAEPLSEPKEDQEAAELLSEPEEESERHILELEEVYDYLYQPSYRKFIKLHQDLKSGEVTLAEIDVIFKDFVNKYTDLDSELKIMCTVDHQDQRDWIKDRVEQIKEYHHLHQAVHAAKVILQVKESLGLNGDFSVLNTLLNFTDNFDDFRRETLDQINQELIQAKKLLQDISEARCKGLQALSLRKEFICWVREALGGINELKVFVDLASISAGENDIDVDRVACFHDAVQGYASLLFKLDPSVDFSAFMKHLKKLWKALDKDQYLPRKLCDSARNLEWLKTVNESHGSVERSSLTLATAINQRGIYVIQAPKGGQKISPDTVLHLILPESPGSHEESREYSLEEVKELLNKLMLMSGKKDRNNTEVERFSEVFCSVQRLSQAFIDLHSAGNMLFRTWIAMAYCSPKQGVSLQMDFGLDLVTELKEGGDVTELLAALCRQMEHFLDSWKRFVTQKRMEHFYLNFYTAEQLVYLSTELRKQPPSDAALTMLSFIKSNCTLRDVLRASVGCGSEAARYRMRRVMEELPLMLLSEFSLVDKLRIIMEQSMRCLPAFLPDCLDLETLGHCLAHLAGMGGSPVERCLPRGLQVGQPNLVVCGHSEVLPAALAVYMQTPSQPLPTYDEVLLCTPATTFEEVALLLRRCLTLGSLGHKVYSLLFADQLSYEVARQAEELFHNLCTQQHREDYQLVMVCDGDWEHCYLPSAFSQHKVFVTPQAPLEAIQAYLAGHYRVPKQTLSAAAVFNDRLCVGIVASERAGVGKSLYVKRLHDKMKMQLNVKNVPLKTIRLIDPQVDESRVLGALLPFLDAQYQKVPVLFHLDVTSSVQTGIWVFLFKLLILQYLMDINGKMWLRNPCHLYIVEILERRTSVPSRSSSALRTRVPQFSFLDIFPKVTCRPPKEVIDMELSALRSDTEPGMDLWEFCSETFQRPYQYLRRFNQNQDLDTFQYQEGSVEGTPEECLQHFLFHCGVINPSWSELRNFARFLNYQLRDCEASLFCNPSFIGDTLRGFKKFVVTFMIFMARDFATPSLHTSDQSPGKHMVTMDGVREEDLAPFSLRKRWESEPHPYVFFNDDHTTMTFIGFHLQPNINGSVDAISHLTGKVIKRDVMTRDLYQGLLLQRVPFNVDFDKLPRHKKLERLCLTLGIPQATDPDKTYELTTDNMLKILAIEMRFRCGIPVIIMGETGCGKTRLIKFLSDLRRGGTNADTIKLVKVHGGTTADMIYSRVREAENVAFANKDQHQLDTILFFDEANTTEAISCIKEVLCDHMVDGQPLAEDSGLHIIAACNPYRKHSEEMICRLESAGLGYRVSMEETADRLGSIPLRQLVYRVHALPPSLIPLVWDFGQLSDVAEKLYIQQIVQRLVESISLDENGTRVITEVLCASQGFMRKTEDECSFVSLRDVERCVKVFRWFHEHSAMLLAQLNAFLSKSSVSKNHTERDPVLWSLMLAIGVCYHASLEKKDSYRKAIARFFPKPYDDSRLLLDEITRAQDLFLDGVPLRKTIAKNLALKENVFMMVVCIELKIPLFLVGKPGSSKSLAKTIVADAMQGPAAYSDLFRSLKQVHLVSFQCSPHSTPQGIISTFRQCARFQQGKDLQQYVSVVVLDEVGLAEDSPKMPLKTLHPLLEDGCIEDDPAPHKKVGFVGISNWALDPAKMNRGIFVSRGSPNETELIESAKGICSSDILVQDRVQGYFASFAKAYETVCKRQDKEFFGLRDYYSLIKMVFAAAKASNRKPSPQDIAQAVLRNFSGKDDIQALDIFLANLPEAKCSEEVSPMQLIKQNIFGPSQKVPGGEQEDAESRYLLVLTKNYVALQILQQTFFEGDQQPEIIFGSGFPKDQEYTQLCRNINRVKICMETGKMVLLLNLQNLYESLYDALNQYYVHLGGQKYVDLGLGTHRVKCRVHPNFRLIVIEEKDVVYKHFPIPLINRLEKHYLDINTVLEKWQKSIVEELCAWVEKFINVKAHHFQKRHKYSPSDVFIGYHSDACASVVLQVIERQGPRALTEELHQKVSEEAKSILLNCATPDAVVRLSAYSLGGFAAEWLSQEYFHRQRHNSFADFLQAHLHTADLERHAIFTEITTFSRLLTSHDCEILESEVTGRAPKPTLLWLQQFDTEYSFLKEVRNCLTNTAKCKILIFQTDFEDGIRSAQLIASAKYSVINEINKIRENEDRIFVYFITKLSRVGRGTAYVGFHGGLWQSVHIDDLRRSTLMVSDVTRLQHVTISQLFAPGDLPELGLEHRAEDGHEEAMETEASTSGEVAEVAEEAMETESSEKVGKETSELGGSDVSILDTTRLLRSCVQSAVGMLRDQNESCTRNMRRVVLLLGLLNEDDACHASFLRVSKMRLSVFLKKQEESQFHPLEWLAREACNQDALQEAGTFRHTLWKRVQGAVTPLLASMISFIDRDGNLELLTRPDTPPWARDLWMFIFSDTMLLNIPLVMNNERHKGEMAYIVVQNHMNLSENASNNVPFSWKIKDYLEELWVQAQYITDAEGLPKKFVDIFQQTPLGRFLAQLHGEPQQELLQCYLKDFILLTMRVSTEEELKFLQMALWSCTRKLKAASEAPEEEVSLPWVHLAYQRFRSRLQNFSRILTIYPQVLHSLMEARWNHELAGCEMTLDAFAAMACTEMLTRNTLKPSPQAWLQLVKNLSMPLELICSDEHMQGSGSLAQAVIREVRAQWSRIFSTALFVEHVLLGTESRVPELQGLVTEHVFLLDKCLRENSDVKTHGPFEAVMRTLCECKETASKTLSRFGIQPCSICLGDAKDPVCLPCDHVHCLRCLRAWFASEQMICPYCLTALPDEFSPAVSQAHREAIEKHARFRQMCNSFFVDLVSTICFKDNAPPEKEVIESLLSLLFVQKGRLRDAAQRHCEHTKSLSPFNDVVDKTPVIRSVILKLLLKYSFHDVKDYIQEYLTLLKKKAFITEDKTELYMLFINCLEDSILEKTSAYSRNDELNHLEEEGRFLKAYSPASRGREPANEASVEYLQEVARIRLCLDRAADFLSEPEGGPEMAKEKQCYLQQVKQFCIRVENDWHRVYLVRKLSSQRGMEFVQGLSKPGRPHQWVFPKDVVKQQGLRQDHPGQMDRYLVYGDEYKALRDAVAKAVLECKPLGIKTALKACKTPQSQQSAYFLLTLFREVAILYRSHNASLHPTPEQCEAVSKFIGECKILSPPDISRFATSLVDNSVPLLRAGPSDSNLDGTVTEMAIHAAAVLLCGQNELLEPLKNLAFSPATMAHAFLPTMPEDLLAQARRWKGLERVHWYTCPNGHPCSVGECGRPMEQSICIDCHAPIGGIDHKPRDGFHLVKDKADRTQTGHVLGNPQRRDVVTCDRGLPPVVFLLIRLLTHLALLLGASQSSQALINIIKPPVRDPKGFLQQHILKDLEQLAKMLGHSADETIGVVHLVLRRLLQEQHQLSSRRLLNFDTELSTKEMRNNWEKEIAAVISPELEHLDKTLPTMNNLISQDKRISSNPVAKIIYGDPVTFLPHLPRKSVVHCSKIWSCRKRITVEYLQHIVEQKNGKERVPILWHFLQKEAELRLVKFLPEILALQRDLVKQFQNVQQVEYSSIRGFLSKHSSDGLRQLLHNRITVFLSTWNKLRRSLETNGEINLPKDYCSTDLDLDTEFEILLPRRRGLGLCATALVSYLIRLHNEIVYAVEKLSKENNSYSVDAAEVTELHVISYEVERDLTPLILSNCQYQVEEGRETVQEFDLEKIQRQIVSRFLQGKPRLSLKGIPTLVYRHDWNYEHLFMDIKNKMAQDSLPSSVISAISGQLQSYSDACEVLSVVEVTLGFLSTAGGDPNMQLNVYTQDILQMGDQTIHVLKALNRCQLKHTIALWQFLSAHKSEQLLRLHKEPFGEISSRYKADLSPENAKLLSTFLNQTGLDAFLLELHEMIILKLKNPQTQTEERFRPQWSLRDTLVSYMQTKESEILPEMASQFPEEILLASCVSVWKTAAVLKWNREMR

Experiments:
[1] = target: mysterin-FLAG (human) (UniProt Q63HN8); assay: affinity purification with mass spectrometry; mysterin-FLAG transiently overexpressed in HEK293T, precipitated from lysate with anti-FLAG antibody; total co-precipitates digested with Lys-C and analysed by LC-MS/MS without SDS-PAGE; hits reproducible in four trials
[2] = target: T1, USP15L-3FLAG (long isoform of USP15 with three tandem FLAG tags at the C-terminus) (human) (UniProt Q9Y4E8); assay: affinity purification with mass spectrometry; USP15L-3FLAG or USP15S-3FLAG transiently overexpressed in HEK293T, precipitated with anti-FLAG antibody; complexes reduced, alkylated, digested with Lys-C and trypsin; LC-MS/MS on total co-precipitates; hits reproducible in all four trials
T1 sequence: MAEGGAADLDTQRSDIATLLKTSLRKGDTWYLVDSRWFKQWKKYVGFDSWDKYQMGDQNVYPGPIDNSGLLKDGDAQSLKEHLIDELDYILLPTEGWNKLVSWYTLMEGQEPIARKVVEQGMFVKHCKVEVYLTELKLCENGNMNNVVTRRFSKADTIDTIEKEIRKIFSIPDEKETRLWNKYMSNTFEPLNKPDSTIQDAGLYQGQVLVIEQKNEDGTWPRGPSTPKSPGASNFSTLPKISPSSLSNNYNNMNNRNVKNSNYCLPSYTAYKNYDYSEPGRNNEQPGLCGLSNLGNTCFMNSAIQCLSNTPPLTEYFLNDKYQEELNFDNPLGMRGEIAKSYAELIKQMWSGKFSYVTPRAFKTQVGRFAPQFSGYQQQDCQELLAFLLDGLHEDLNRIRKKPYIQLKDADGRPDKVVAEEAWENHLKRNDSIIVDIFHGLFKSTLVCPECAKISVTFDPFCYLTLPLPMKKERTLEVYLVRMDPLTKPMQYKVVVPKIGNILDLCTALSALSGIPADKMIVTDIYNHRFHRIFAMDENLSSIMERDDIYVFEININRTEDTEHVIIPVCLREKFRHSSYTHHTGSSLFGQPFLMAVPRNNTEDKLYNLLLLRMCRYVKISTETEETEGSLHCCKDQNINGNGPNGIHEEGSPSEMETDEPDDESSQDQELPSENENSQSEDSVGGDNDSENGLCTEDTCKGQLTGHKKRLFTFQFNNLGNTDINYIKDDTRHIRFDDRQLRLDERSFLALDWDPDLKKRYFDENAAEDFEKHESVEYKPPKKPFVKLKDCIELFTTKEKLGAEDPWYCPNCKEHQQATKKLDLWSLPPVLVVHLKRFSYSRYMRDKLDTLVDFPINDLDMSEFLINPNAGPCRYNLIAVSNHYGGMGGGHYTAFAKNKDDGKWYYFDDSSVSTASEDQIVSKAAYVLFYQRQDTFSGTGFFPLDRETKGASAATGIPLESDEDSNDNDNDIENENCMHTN

[3] = target: T2, USP15S-3FLAG (short isoform of USP15 with three tandem FLAG tags at the C-terminus) (human) (UniProt Q9Y4E8); assay: as above
T2 sequence: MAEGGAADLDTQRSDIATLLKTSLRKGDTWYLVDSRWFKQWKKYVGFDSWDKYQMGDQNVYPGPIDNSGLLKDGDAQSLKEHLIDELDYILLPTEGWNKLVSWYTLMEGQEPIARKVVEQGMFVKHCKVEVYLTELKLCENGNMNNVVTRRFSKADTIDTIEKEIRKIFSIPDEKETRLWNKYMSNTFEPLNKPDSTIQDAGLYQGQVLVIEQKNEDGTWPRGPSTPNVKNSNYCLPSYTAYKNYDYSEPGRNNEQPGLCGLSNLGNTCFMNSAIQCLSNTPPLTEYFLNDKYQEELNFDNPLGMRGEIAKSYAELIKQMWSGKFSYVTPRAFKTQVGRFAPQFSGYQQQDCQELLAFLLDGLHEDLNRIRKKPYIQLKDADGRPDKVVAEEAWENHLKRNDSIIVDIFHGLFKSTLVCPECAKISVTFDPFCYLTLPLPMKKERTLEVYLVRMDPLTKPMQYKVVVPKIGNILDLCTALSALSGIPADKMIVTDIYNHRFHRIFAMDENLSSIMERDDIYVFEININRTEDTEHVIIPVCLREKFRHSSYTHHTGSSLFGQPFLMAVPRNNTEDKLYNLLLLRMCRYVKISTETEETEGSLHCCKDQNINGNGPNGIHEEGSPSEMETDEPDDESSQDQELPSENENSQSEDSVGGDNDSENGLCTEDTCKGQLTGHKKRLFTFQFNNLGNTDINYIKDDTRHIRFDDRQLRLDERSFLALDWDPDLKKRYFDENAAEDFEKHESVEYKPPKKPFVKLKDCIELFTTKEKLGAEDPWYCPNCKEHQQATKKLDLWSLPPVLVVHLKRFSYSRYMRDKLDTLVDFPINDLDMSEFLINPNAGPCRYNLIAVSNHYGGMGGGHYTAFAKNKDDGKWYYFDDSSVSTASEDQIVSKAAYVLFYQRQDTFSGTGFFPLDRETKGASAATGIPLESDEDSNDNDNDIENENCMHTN

[4] = target: T1, USP15L-3FLAG (long isoform of USP15 with three tandem FLAG tags at the C-terminus) (human); assay: as above; remark: listed apart in the source

**Q.** How did the binding [1] turn out when “LYAR, endogenous (from UniProt Q9NX58 1-379)” was run?
**A.** binds

**Q.** How did the binding [2] turn out when “mysterin (moyamoya steno-occlusive disease-associated AAA+ and RING finger protein), endogenous (from UniProt Q63HN8 1-5207)” was run?
**A.** binds

B1: SART3, endogenous (protein, UniProt Q15020 1-963)
chain: MATAAETSASEPEAESKAGPKADGEEDEVKAARTRRKVLSRAVAAATYKTMGPAWDQQEEGVSESDGDEYAMASSAESSPGEYEWEYDEEEEKNQLEIERLEEQLSINVYDYNCHVDLIRLLRLEGELTKVRMARQKMSEIFPLTEELWLEWLHDEISMAQDGLDREHVYDLFEKAVKDYICPNIWLEYGQYSVGGIGQKGGLEKVRSVFERALSSVGLHMTKGLALWEAYREFESAIVEAARLEKVHSLFRRQLAIPLYDMEATFAEYEEWSEDPIPESVIQNYNKALQQLEKYKPYEEALLQAEAPRLAEYQAYIDFEMKIGDPARIQLIFERALVENCLVPDLWIRYSQYLDRQLKVKDLVLSVHNRAIRNCPWTVALWSRYLLAMERHGVDHQVISVTFEKALNAGFIQATDYVEIWQAYLDYLRRRVDFKQDSSKELEELRAAFTRALEYLKQEVEERFNESGDPSCVIMQNWARIEARLCNNMQKARELWDSIMTRGNAKYANMWLEYYNLERAHGDTQHCRKALHRAVQCTSDYPEHVCEVLLTMERTEGSLEDWDIAVQKTETRLARVNEQRMKAAEKEAALVQQEEEKAEQRKRARAEKKALKKKKKIRGPEKRGADEDDEKEWGDDEEEQPSKRRRVENSIPAAGETQNVEVAAGPAGKCAAVDVEPPSKQKEKAASLKRDMPKVLHDSSKDSITVFVSNLPYSMQEPDTKLRPLFEACGEVVQIRPIFSNRGDFRGYCYVEFKEEKSALQALEMDRKSVEGRPMFVSPCVDKSKNPDFKVFRYSTSLEKHKLFISGLPFSCTKEELEEICKAHGTVKDLRLVTNRAGKPKGLAYVEYENESQASQAVMKMDGMTIKENIIKVAISNPPQRKVPEKPETRKAPGGPMLLPQTYGARGKGRTQLSLLPRALQRPSAAAPQAENGPAAAPAVAAPAATEAPKMSNADFAKLFLRK
**Q.** Which binding [3] does the source give for B1 here?
**A.** binds

**Q.** And the binding [4]?
**A.** binds
